This is an account of results in doi:10.1101/162677.

The target in test [1] is T1, Rad11-YFP (Schizosaccharomyces pombe) (UniProt Q92372).
T1 sequence: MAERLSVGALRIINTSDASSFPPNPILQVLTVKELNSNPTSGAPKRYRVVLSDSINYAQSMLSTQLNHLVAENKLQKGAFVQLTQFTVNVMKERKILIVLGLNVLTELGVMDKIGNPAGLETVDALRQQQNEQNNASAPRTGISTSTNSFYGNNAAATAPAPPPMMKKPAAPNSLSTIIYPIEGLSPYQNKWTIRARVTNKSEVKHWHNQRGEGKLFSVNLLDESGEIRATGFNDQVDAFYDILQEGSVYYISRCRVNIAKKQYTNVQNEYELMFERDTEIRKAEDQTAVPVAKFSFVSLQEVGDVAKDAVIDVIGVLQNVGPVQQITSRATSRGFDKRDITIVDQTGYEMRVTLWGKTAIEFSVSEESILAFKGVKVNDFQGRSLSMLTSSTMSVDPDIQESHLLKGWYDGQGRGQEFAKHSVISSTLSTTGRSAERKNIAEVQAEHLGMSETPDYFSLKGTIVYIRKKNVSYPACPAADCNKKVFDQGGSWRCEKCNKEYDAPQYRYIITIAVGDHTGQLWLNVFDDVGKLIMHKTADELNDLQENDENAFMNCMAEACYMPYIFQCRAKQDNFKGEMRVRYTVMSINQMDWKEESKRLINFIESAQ
Briefly: co-IP.

In test [2] the target is T2, Ssb3-YFP (Schizosaccharomyces pombe) (UniProt Q92374).
T2 sequence: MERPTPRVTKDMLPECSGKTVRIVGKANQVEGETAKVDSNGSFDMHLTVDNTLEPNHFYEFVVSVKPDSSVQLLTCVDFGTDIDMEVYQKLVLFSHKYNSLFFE
Briefly: co-IP.

No constants are given. Whether binding was seen depends on the method and setting. In cells and extracts the contact can be indirect. Some results given as binding are weak or reduced against the parent protein; the word gives no strength. Tags and fused reporters may be left off the sequences shown.

B1: Pku70-HA (protein, UniProt O94395 1-607)
chain: MENDEQIDETENFAIGKYAILFVIEVSPSMLDPVDEFTPSSLQMALICAYQLAAQRVITNPSDIMGVLLYGTESSTGRFANQMMLLDIDPPDAERIKSLQSFEKDFQFSKEKFKPCSCQVSLSSVLYHCSVIFTTKAENFEKRLFLITDNDHPAWDATERDIILQRAKDLRDLDIQVHPVFLDPPTHSFRINIFYSDFLYIVYGRQDVSNLVNRGQAQLQHMLNMITALQKPKRAHFHLKMDLGNDVRIGVEAFILLKRLESAKTNWVYAKGERFAVAVPQSKQVSFATKKELKKDEIRRSYSYGGSSVVFGSDELNKVRSFEPPTLRIIGFRDFSTLKPWHCLKPAVFLRPKDDEIIGSGAVFSAIHKKLLASNKIGIAWFVSRPNANPCFVAMLATPGSIHIRDDFELPLGIFLVQLPTADDIRSLPPINPNPISMPSNLIETMQRILRGMELRSYQPGKYNNPSLQWHYKVLQALALDEEIPTDFVDNTLPKYKAIQKRVGEYMGDVNNIVAEYRNDISDKNGIKEEEEDQGPIVKKARIEKSGKPIFAEDDRLKQLYIEGVLDKEIKALKVSQLKDILRDRGLRVSGKKADLLDNLTNYVKKL
Regarding B1, the binding entry in test [1] and in test [2] was “binds” each time.
